These results are taken from PMC3621835.

Amino acid sequences for entries named in this document (tags omitted). A change or cut given only in a name is not applied to a line headed by its entry. Residues count along the entry.
UniProt P15253: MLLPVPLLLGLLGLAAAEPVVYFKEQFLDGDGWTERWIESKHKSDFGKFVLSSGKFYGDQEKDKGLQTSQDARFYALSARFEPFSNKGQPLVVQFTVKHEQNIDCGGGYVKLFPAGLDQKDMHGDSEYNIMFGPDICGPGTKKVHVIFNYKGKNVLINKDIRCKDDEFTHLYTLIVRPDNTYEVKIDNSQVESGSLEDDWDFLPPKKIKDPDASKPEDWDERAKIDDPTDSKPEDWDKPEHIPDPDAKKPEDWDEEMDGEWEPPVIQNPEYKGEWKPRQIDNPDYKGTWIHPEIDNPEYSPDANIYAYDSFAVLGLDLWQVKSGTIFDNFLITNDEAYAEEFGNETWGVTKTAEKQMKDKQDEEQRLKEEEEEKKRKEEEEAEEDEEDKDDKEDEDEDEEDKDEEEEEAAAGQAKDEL
UniProt Q92542, residues 34-709: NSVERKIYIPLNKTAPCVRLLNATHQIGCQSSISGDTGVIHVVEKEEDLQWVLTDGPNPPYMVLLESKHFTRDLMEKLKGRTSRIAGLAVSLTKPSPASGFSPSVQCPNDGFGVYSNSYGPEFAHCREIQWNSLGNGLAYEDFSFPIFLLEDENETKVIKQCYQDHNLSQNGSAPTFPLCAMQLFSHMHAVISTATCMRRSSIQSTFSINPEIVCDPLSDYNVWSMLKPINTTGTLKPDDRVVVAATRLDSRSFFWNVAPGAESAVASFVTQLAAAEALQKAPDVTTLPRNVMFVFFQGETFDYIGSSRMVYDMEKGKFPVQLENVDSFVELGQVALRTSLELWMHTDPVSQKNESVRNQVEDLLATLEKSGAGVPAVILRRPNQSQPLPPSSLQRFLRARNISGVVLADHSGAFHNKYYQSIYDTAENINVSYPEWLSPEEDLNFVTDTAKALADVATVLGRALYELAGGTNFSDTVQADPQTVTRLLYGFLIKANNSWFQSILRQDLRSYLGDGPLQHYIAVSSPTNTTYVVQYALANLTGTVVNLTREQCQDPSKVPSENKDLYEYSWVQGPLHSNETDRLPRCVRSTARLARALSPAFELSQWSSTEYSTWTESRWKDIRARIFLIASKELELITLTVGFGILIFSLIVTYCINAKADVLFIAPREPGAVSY

No constants are given. Whether binding was seen depends on the method and setting. Binding seen in cells or lysates may run through a third protein. A result given as binding can be weak or reduced; the word gives no strength.

In this test the target is GST fusion protein comprising the calreticulin C-domain (amino acid 330–401) (rabbit) (UniProt P15253). In words: pull-down; GST or GST-calreticulin fusion proteins on glutathione-agarose beads with solubilized membranes of HEK cells overexpressing presenilin, overnight at 4°C; Western blot with presenilin antibody 2953 or nicastrin antibody; only the target purified.

As to “nicastrin (HEK cells overexpressing presenilin) (from UniProt Q92542 34-709)”, the binding result is reported as “binds”.
